From PubChem BioAssay AID651803 (National Center for Advancing Translational Sciences (NCATS), 2012)
Out of some 1,200 compounds screened, fewer than 10 were called active. Calls follow the shape of the dose curve; as a rule, active = well fitted curve in the direction sought with a large enough effect; inconclusive = small, poorly fitted or top-dose-only effect, or another doubt; inactive = no such curve, though single readings can be large or run the other way. The list shows a part of the results.

Protein sequences, listed by entry. Tags and fused reporters are not part of them. Lines headed by an entry give the natural chain unless they say otherwise; changes in a name come on top.
UniProt P11308: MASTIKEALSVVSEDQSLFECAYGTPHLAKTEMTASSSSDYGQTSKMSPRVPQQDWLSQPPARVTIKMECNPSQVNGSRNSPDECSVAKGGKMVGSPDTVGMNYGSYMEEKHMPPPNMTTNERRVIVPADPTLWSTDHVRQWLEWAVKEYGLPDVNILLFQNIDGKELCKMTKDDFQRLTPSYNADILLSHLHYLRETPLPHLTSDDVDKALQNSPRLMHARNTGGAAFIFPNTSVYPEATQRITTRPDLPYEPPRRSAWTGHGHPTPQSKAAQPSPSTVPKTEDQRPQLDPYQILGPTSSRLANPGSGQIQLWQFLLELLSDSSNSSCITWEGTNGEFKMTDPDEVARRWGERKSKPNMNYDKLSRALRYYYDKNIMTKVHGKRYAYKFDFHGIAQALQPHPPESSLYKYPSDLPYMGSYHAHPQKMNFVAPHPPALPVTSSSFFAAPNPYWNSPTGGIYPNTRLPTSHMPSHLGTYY

molecular target: Transcriptional regulator ERG (Homo sapiens) (UniProt P11308); experiment: qHTS for Small Molecule Inhibitors of the ERG Ets/DNA interaction: TR assay against cherry picks; settings: ERG Ets domain-DNA fluorescence polarization, Texas red probe; at 154 µM (top of the series); also: % of control where 0% means no effect
Method in brief: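 Polarization read sequentially for fluorescein (ex 480/em 535 nm) and Texas red (ex 555/em 632 nm) probes, 5 nM and 100 nM solutions, displaced from His-ERG Ets domain (1 uM solution), pH 7.5 Tris/KCl/EDTA/DTT buffer.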

Activity change, negative = inhibition, inactive:
Cc1cc(C(=O)N/N=C/c2c(C)nn(-c3ccccc3)c2Cl)n[nH]1 -13.2%
C[N+]1(C)C2CC(OC(=O)C(CO)c3ccccc3)CC1C1OC12 (centres undefined) -7.03%
O=C(O)c1cc2c(s1)-c1ccccc1CC2 -7.43%
CCNC(=S)N(CCO)Cc1cc2cc3c(cc2[nH]c1=O)OCO3 0.136%
Cc1ccc(C)c(NC(=S)/C(=C(\[O-])c2ccc(OC(F)F)cc2)[n+]2ccccc2)c1 -6.17%
O=C(CN1C(=O)CS/C1=C\c1nc(-c2ccc(Cl)cc2)cs1)Nc1cccnc1Cl 4.61%
O=C1CCCC(O)=C1N=Nc1ccc(S(=O)(=O)N2CCOCC2)cc1 -11.4%
CCOc1cc(/C=C2\CCCc3c2nc2ccccc2c3C(=O)O)ccc1OC 47%
CCOC(=O)c1sc(NC(=O)c2c(-c3ccccc3)c(-c3ccccc3)nn(C)c2=O)nc1C -8.8%
Cc1ccc2c(COC(=O)c3ccccc3Br)cc(=O)oc2c1 -0.0577%
Cc1cc(C)cc(NC(=O)CCOc2ccccc2)c1 5.49%
COc1ccc(NC(=O)CSc2ccc(-c3ccco3)nn2)cc1OC 0.142%
CN(C(=O)COC(=O)c1ccc(F)c(S(=O)(=O)N2CCOCC2)c1)C1CCS(=O)(=O)C1 (centres undefined) -7.37%
CNc1nc2ccccc2n(C)c1=O 2.19%
COc1ccc(NC(=O)C2CCN(C(=O)C3CC(=O)N(c4ccc(C)cc4)C3)CC2)cc1 (centres undefined) 4.62%
CCOC(=O)C(CC)Sc1ccc2nnc(-c3cccnc3)n2n1 (centres undefined) -20.8%
CNCC(O)CN1CCN(c2ccccc2OC)CC1 (centres undefined) 5.62%
COc1ccc2cc(CO)c(Cl)nc2c1 4.04%
Cc1noc(C)c1S(=O)(=O)N(CC(=O)NCc1ccc(F)cc1)c1ccc(C(C)C)cc1 -12.4%
N#C/C(=C\c1ccc(-c2ccccc2[N+](=O)[O-])o1)C(N)=O -9.59%
CC(C)CN1C2CCCC1CC(NC(=S)NCc1ccco1)C2 (centres undefined) -8.14%
CCCOc1ccc(C2c3c(-c4ccccc4O)n[nH]c3C(=O)N2CCc2ccccc2)cc1OCC (centres undefined) -6.68%
COc1ccc(CCn2c(C)cc(C(=O)COC(=O)c3cnc(C)cn3)c2C)cc1 -8.89%
COc1ccc(CN2CCC(C(=O)N3CCCC(C)C3)CC2)cc1OC (centres undefined) 8.66%
Cc1ccc(C)c(NC(=O)COC(=O)c2ccc[n+]([O-])c2)c1 0.543%
COC(=O)c1sccc1NC(=O)/C=C/C(=O)O -5.73%
O=C(CSC1=NCCS1)NC(NC(=O)CSC1=NCCS1)c1ccccc1 -15.3%
c1ccc([C@H]2CN3C(=N2)Sc2ccccc23)cc1 -13.6%
Cc1ccc(NC(=O)C2CC(O)CN2C(=O)OCc2ccccc2)c(C)c1 (centres undefined) -3.93%
CCOc1ccc(NC(=O)CSc2nc(-c3cccs3)cc(C(F)(F)F)c2C#N)cc1 12.5%
CCOC(=O)CSc1nncc2ccc(OC)c(OC)c12 3.08%
Cc1ccc(NCC(=O)N/N=C/c2c[nH]c3ccccc23)cc1 -11.6%
Cc1ccc(Cn2c(SCC(=O)N/N=C/c3ccccc3OCC(=O)O)nc3ccccc32)cc1 14.1%
Cc1c(NC(=O)c2cc(-n3cnnc3)ccc2Cl)cccc1-c1nc2ccccc2s1 -4.71%
COc1ccccc1CNC(=O)CCNC(=O)C1CCN(S(=O)(=O)c2ccccc2)CC1 -4.44%
Oc1ccc(NCc2cccs2)cc1 -7.78%
CC(C)n1c(SCc2ccccc2F)nc2c1c(=O)n(C)c(=O)n2C -13.1%
Cc1nonc1C1CCCN1C(=O)c1cc(COc2ccc(F)cc2Cl)on1 (centres undefined) -0.16%
COC(=O)Cc1ccc(NC(=S)NC(C)(C)C)cc1 -0.76%
COc1cccc(C(=O)OCC(=O)Nc2ccc(N3CCOCC3)cc2)c1 -3.12%
O=S(=O)(c1ccc(Cl)cc1)N1CCN(CCc2ccccc2)CC1 9.1%
CC(Oc1ccc(F)cc1)C(=O)Nc1ccc(S(=O)(=O)NC2=NCCCCC2)cc1 (centres undefined) -11.1%
Cc1ccsc1/C=N/NC(=O)CO 1.33%
COc1cc(C(=O)Nc2ccc(S(=O)(=O)Nc3cc(C)nc(C)n3)cc2)cc(OC)c1OC 3.82%
Cc1cc2nc3c(=O)[nH]c(=S)[nH]c3nc2cc1NC(=O)C(F)(F)F 24.9%
Cc1cc(C[n+]2ncsc2N)c2ncccc2c1 5.54%
CCOc1ccc(N2C(=O)CC(N3CCN(C(=O)c4ccco4)CC3)C2=O)cc1 (centres undefined) -13%
COc1ccc(S(=O)(=O)NNC(=S)NCCc2ccccc2)c(OC)c1 -10.3%
Cc1cc(F)ccc1NC(=O)c1ccc(NS(=O)(=O)c2cc(C(C)(C)C)ccc2C)cc1 4.71%
c1cnc(N2CCN(Cc3ccc4c(c3)OCO4)CC2)nc1 -5.83%
Nc1cccc(N2C(=O)c3cccc4c(N)ccc(c34)C2=O)c1 4.36%
COc1cc(CNCC2CCCO2)ccc1OCC(N)=O (centres undefined) 5.44%
Cn1nc([N+](=O)[O-])c(C(C#N)c2ccccn2)c(Cl)c1=O (centres undefined) 3.56%
Cc1ccc(NC(=O)c2cc3cc(OC(F)(F)F)ccc3[nH]2)cc1 4.35%
COC(=O)C(CSCc1ccccc1)NC(=O)CSc1nc(N)cc(=O)[nH]1 (centres undefined) 0.742%
CCN(Cc1ccccc1)C(=O)COC(=O)CNC(=O)c1ccc(C)s1 -9.94%
CC(C)(O)CN(CCCNC(=S)Nc1ccccc1)C(=S)Nc1ccccc1 -0.187%
NCCCC(=O)O 11.5%
CC(CCC(=O)O)C1CCC2C3CCC4C[C@H](O)CCC4(C)C3CC(=O)C12C (some centres undefined) 3.49%
O=C(NCCCc1ccccc1)C(=O)NCC1OCCN1S(=O)(=O)c1ccccc1 (centres undefined) 11.2%
C=COc1ccc(N2C(=O)c3ccccc3OC2C)cc1 (centres undefined) -11.8%
O=C(COc1ccccc1)Nc1ccc2c(c1)Cc1cc(NC(=O)COc3ccccc3)ccc1-2 2%
CCOc1cc(S(=O)(=O)n2ccc(C)n2)ccc1Br 10.8%
CC(Oc1ccccc1)C(=O)Nc1ccc(S(=O)(=O)N2CCN(C)CC2)cc1 (centres undefined) -8.43%
COc1ccc(NC(=S)Nc2ccc(N(C)C(C)=O)cc2)cc1 9.81%
COc1ccc(C(=O)N2CCc3ccc(NC(=O)c4ccccn4)cc3C2)cc1F -0.766%
COc1ccc(OC)c(/C=N/NC(=O)c2ccc[n+](CC(=O)c3ccccc3)c2)c1 4.84%
COc1ccc(/C=N/n2cnnc2)cc1Br -7.09%
Cc1nc2ccccc2c(=O)n1NC(=O)c1cccnc1Cl -1.27%
O=C(CSc1ncccc1C(=O)O)NCCC1=CCCCC1 0.0624%
Nc1ccccc1S(N)(=O)=O -4.27%
COc1ccc(CCC(=O)N2CCN(S(=O)(=O)c3ccc(C)cc3)CC2)cc1 2.3%
COc1ccc2c(CCNC(=O)/C=C/c3ccc(OC)c(OC)c3)c[nH]c2c1 1.82%
COc1ccccc1NC(=O)C(=O)N/N=C(\C)CC(=O)Nc1ccccn1 2.79%
Cc1cc(N)ccc1-n1c(C)ccc1C -12.2%
CC(=O)c1ccc(N(CC(=O)NC2CCS(=O)(=O)C2)S(=O)(=O)c2ccc(C)cc2)cc1 (centres undefined) 25.8%
Cc1ccc(C=Nc2cccnc2N)cc1 44%
Cn1c(SCc2ccc([N+](=O)[O-])cc2)nnc1-c1cccnc1 5.13%
O=C(Nc1nc(-c2ccc(F)c(F)c2)cs1)c1cc([N+](=O)[O-])ccc1N1CCOCC1 1.32%
Cc1ccc(C)c(N(CC(=O)NCc2ccco2)C(=O)CNS(=O)(=O)c2ccc(F)cc2)c1 2.79%
Clc1ccc(-c2csc(N/N=C/c3ccco3)n2)cc1 -19.8%
COc1cc(OC)cc(C(=O)OCC(=O)N2CCCC2)c1 0.0223%
COc1cc(-c2ccc(Nc3ccccc3C(=O)O)c(OC)c2)ccc1Nc1ccccc1C(=O)O -17.9%
COc1ccc(OC)c(NC(=O)c2cccc(NC(=O)c3ccccc3)c2)c1 4.7%
CCCNC(=O)C1=C(C)C(=O)OC12CCC(C)CC2 (centres undefined) 5.66%
CCn1c(CSc2ncn[nH]2)nc2cc(C(=O)O)ccc21 28.3%
CCN(CC)CCCNC(=O)c1cc(Nc2ccc(OC)cc2OC)nc2ccccc12 -5.72%
CCn1ncc(Br)c1C(=O)Nc1cccc(C(C)=O)c1 3.75%
CC(=O)Nc1sc2c(c1-c1nc3ccccc3s1)CCN(C(C)C)C2 -14.4%
Cc1ccc(C(=O)Nc2nnc(COc3ccccc3)s2)cc1 9.85%
COc1ncnc2c1N=C1CC(C)(C)CC(N)=C1S2 82%
CCCCn1c(N)c(N(CC)C(=O)c2ccc(C#N)cc2)c(=O)[nH]c1=O -1.33%
COCCn1c(C)cc(C(=O)CSc2nnnn2C2CCCC2)c1C 6.02%
O=C(NC1CCCC1)C1CCN(C(=O)c2cccc(Cl)c2)CC1 5.11%

No new results follow: entries from further up.
Activity change, negative = inhibition, inactive:
Cc1ccsc1/C=N/NC(=O)CO 1.33%
COc1cc(C(=O)Nc2ccc(S(=O)(=O)Nc3cc(C)nc(C)n3)cc2)cc(OC)c1OC 3.82%

Structural class, the entries above with a tert-butyl group (two)
Activity change, negative = inhibition, inactive:
COC(=O)Cc1ccc(NC(=S)NC(C)(C)C)cc1 -0.76%
Cc1cc(F)ccc1NC(=O)c1ccc(NS(=O)(=O)c2cc(C(C)(C)C)ccc2C)cc1 4.71%
